Assay results reported in PubChem BioAssay AID504467 (National Center for Advancing Translational Sciences (NCATS), 2011).
Among all 330,000 compounds or so, about 7,700 (2.3%) were called active. Inconclusive results, whose numbers are uncertain, are shown with a selection of clear calls. Calls come from the whole dose curve; as a rule, active = well fitted inhibition curve with a large enough effect; inconclusive = small, poorly fitted or top-dose-only effect, or effect the other way; inactive = flat fitted curve, though single readings scatter. Potencies beside an inconclusive call are fits to weak or partial responses and may not hold up.

Test: qHTS screen for small molecules that inhibit ELG1-dependent DNA repair in human embryonic kidney (HEK293T) cells expressing luciferase-tagged ELG1; note: nearly all actives have a fitted effect of over 55% in size
Settings: HEK293T ELG1-luciferase reporter, luminescence, 16 h, DNA damage induced by 5-fluorouridine; activity change, negative = inhibition: at 46.1 µM (top of the series)
Procedure, shortened: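 Reporter activity after DNA damage by 5-fluorouridine is monitored. Compound-treated cells incubate 16 hr at 37 °C, then ONE-Glo is added for 30 min before luminescence reading.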
% is set by controls: 0 for no effect and ±100 for the full control effect; potency is the fitted concentration of half-maximal effect.

Row | SMILES | activity change, negative = inhibition | Potency
1 | COc1ccc(NC(=O)COC(=O)CNS(=O)(=O)/C=C/c2ccccc2)cc1OC | inactive: 11.2% | –
2 | O=C(Cn1nc(-c2cccc(Cl)c2)ccc1=O)Nc1ccc(C(=O)NC2CC2)cc1 | – | inconclusive: 29.1 µM [inhibitor, single point]
3 | CC(/C=N/Nc1nc2ccccc2[nH]1)=C\c1ccccc1 | – | inconclusive: 1.46 µM [activator, full curve]
4 | Cc1ccc(-n2ncc(N(C)C)c(Cl)c2=O)cc1 | – | inconclusive: 2.06 µM [activator, full curve]
5 | CCOc1ccc(CNC(=O)c2cccc(NC(=O)C3=C(C)OCCS3)c2)cc1 | – | inconclusive: 29.1 µM [inhibitor, single point]
6 | COCCCNC(=O)CSc1nc2c(sc3ccccc32)c(=O)n1CCCC(=O)NCC1CCCO1 (stereo unspecified) | – | inconclusive: 5.17 µM [activator, partial curve, poor fit]
7 | CC1(C)NC(=O)N(CC(O)CN(c2ccccc2)S(=O)(=O)c2ccccc2[N+](=O)[O-])C1=O (stereo unspecified) | inactive: 1.96% | –
8 | Cn1c(=O)c2c(SCC(=O)Nc3ccc4c(c3)OCCO4)nc(CC(C)(C)C)nc2n(C)c1=O | inactive: -3.14% | –
9 | COc1ccc(/C=N/NC(=O)CCSc2nc3ccccc3s2)cc1OC | – | inconclusive: 25.9 µM [inhibitor, partial curve]
10 | Cc1nnc(SCC(=O)c2c(N)n(C)c(=O)n(C)c2=O)n1Cc1ccccc1 | – | inconclusive: 18.4 µM [inhibitor, single point]
11 | CC1CCCC(NC(=O)C2CCN(S(=O)(=O)c3cccc4nonc34)CC2)C1C (stereo unspecified) | – | inconclusive: 29.1 µM [activator, partial curve, poor fit]
12 | O=C(OCC(=O)N1CCCC1=O)c1nc(Cl)c(Cl)c(Cl)c1Cl | – | inconclusive: 9.2 µM [inhibitor, single point]
13 | COC(=O)c1cc2sc(Cl)cc2n1CC(=O)N1CCCc2ccccc21 | – | inconclusive: 29.1 µM [inhibitor, single point]
14 | CCOc1ccc(-n2c(=S)sc3c(=O)n(-c4ccccc4)c(SC)nc32)cc1 | – | inconclusive: 25.9 µM [inhibitor, single point]
15 | O=C(Cn1c(=O)n(Cc2ccc3c(c2)OCO3)c(=O)c2ccccc21)N1CCCc2ccccc21 | – | inconclusive: 18.4 µM [inhibitor, single point]
16 | CCOC(=O)C1=C(CSc2nc3c(cc2C#N)CN(C)CC3)OC(N)=C(C#N)C1c1ccncc1 (stereo unspecified) | inactive: -5.92% | –
17 | COc1ccc(OC)c(N/C(C)=C/C(=O)c2ccncc2)c1 | – | inconclusive: 35.5 µM [inhibitor, single point]
18 | Cc1ccc(C(=O)C2CCN(CC(=O)Nc3ccc(N(C)C)cc3)CC2)cc1 | – | inconclusive: 11.2 µM [inhibitor, partial curve]
19 | COc1cc(-c2nn3c(COc4ccccc4)nnc3s2)cc(OC)c1OC | – | inconclusive: 20.6 µM [inhibitor, partial curve]
20 | COc1cccc(CN2CCN(C(=O)c3cc(-c4cccnc4)nc4ccc(C)cc34)CC2)c1 | – | inconclusive: 14.6 µM [inhibitor, partial curve]
21 | CC(C)c1ccc(NC(=S)Nc2ccc3cn[nH]c3c2)cc1 | inactive: 13.2% | –
22 | CCCCn1c(-c2ccc(F)c(F)c2)nc2cc3[nH]c(=O)c(C(C)C)nc3cc21 | – | inconclusive: 29.1 µM [inhibitor, single point]

Row | SMILES | activity change, negative = inhibition | Potency
23 | COc1ccc(-c2nnc(Nc3ccc(OC)c(C(=O)N4CCCCC4)c3)c3ccccc23)cc1 | – | inconclusive: 18.4 µM [inhibitor, partial curve]
24 | CCN(CC)CCCn1c2c(c(SCC(=O)Nc3ccc(OC(F)(F)F)cc3)nc1=O)CCC2 | inactive: 8.89% | –
25 | Cc1cccc(OCC(=O)Nc2ccc(NC(=O)c3ccco3)cc2)c1 | – | inconclusive: 20.6 µM [activator, single point]
26 | CCN(CC)c1ccc(S(=O)(=O)N(CC)CC)cc1NC(=O)C1CCCC1 | – | inconclusive: 14.6 µM [inhibitor, partial curve, poor fit]
27 | NC1=NC(=O)/C(=C/c2ccc(Cl)cc2Cl)S1 | inactive: 16.3% | –
28 | O=C(CNC(=S)N(Cc1ccccc1)Cc1cccnc1)N1CCOCC1 | inactive: -1.36% | –
29 | O=S1(=O)N=C(c2ccccc2)C=C(c2ccccc2)N1 | inactive: 21.3% | –
30 | CCOC(=O)c1nc(C)nc(Sc2n[nH]c(-c3ccccc3)n2)c1C | – | inconclusive: 4.11 µM [inhibitor, full curve, poor fit]
31 | CCOCCCNC(=O)C1CCN(S(=O)(=O)c2cc(Br)cc3c2N(C(=O)CC)CC3)CC1 | – | inconclusive: 4.61 µM [inhibitor, full curve]
32 | Cc1cc(C(=O)N/N=C2\CC(=O)c3ccccc32)c(C)n1-c1ccc(F)cc1 | – | inconclusive: 8.2 µM [activator, partial curve]
33 | COc1ccc(-n2c(N)c(C#N)c3ccc([N+](=O)[O-])cc3c2=O)cc1 | – | inconclusive: 16.4 µM [activator, single point]
34 | CCN(c1ccccc1)S(=O)(=O)c1cccc(C(=O)NCc2ccccc2CN2CCOCC2)c1 | – | active: 11.6 µM
35 | Oc1ccc(/C=C/c2cc(O)cc(O)c2)cc1 | – | inconclusive: 4.11 µM [activator, full curve]
36 | O=C(CCNS(=O)(=O)c1cccc(C(F)(F)F)c1)NC1CC1 | inactive: 4.63% | –
37 | COc1ccc(-c2nc(CCNS(=O)(=O)c3ccc4c(c3)OCCO4)cs2)cc1 | – | inconclusive: 18.4 µM [inhibitor, single point]
38 | O=C(Nc1cccc(-c2nnc(-c3ccccc3)o2)c1)C1CC1 | – | inconclusive: 23.1 µM [inhibitor, single point]
39 | COc1ccc(C2c3[nH]c4ccccc4c3C[C@H]3C(=O)N(c4ccccc4C(=O)N4CCC[C@H]4C(=O)O)C(=O)N23)cc1 (stereo partly specified) | – | inconclusive: 0.259 µM [inhibitor, single point]
40 | CC(C)(C)c1ccc(Cn2c(=N)n(CC(O)c3ccco3)c3ccccc32)cc1 (stereo unspecified) | inactive: -26% | –
41 | CC(C)(C)[C@@H]1COC(=O)[C@H](Cc2ccc(F)cc2)C/C=C\C[C@@H](CC(=O)NCCO)C(=O)N1 | – | inconclusive: 20.6 µM [activator, partial curve, poor fit]
42 | O=C1CSC(c2cccnc2)N1CCc1ccccn1 (stereo unspecified) | – | inconclusive: 13 µM [inhibitor, partial curve]
43 | CCc1c(C2(O)CCCCC2)[nH]c2cnccc12 | inactive: 5.04% | –
44 | COc1cc2c(cc1OC)CN(C(=O)C1CCCN1S(=O)(=O)c1ccc(F)cc1)CC2 (stereo unspecified) | – | inconclusive: 0.184 µM [inhibitor, single point]

Given in CSV form: 4 of the compounds above
Row,SMILES,"activity change, negative = inhibition",Potency
35,Oc1ccc(/C=C/c2cc(O)cc(O)c2)cc1,–,"inconclusive: 4.11 µM [activator, full curve]"
36,O=C(CCNS(=O)(=O)c1cccc(C(F)(F)F)c1)NC1CC1,inactive: 4.63%,–
37,COc1ccc(-c2nc(CCNS(=O)(=O)c3ccc4c(c3)OCCO4)cs2)cc1,–,"inconclusive: 18.4 µM [inhibitor, single point]"
38,O=C(Nc1cccc(-c2nnc(-c3ccccc3)o2)c1)C1CC1,–,"inconclusive: 23.1 µM [inhibitor, single point]"

Later entries.

Row | SMILES | activity change, negative = inhibition | Potency
45 | COCCCn1c(SCC(=O)NNC(=O)c2cccc(O)c2)nnc1-c1ccncc1 | inactive: 10.7% | –
46 | COC(=O)[C@@]1(Cc2ccc(F)cc2)[C@H]2c3cc(C(=O)N4CCCC4)n(CCO)c3C[C@H]2CN1C(=O)c1ccccc1 | inactive: -12.7% | –
47 | Cc1cc(C)cc(S(=O)(=O)Cc2noc(C(=O)NCc3ccccc3)c2C(=O)NCc2ccccc2)c1 | inactive: -21.9% | –
48 | Cc1cccc2cc(CN(Cc3cccs3)C(=S)NCC3CCCO3)c(=O)[nH]c12 (stereo unspecified) | – | active: 16.4 µM
49 | CN(C)c1ccc(C2Nc3ccccc3C(=O)N2CCCN2CCOCC2)cc1 (stereo unspecified) | – | inconclusive: 18.3 µM [activator, partial curve]
50 | Cc1ccc2nc(-c3ccccn3)cc(C(=O)Nc3ccc4c(c3)OCO4)c2c1 | – | inconclusive: 14.6 µM [activator, partial curve, poor fit]
51 | COc1ccc(NC(=O)c2cccc(N3C(=O)C4C5C=CC(C5)C4C3=O)c2)cc1 (stereo unspecified) | inactive: -8.03% | –
52 | COc1ccc(/C=C2\SC(=O)N(CC(=O)NC3CCS(=O)(=O)C3)C2=O)cc1 (stereo unspecified) | – | inconclusive: 9.2 µM [activator, partial curve]
53 | Cc1ccc2nc(NC(=O)CN(C)S(=O)(=O)c3cccc4nsnc34)sc2c1 | inactive: 2.04% | –
54 | CCc1ccccc1NC(=O)CN1CCN(CC(=O)Nc2cc(C)ccc2OC)CC1 | – | active: 1.64 µM
55 | O=C(Nn1c(SCc2ccc(F)cc2)nc2ccsc2c1=O)c1ccccc1 | inactive: 21.7% | –
56 | CCOC(=O)/C=C1\SCC(=O)N1CCOc1cccc(Br)c1 | – | inconclusive: 16.4 µM [inhibitor, partial curve]
57 | Brc1ccc(-c2ccc(/C=N/Nc3nc4ccccc4[nH]3)o2)cc1 | – | inconclusive: 8.2 µM [activator, partial curve]
58 | CCCCCOC(=O)Cn1c(=O)c2c(nc(N3CCOCC3)n2C)n(C)c1=O | – | inconclusive: 18.4 µM [inhibitor, partial curve]
59 | CCOC(=O)N1CCN(C(=O)/C(=C/c2cccc3ccccc23)NC(=O)c2ccc(OC)c(OC)c2)CC1 | – | inconclusive: 32.6 µM [inhibitor, single point]
60 | O=C(Nc1ccc2c(c1)oc1ccccc12)C1CC1 | – | inconclusive: 4.11 µM [activator, full curve]
61 | CC(C)CNS(=O)(=O)c1ccc(CCC(=O)N2CCN(Cc3ccccc3)CC2)cc1 | – | inconclusive: 16.4 µM [inhibitor, partial curve, poor fit]
62 | C/C(=N/NS(=O)(=O)c1ccc(Br)cc1)c1ccc(NC(=O)c2ccc(C)o2)cc1 | inactive: 26.4% | –
63 | Cc1cccc(/C(N)=N/OC(=O)Cc2ccccc2)c1 | – | inconclusive: 29.1 µM [activator, single point]
64 | O=c1sc(N2CCN(c3ccc(F)cc3)CC2)nc2ccsc12 | – | inconclusive: 5.8 µM [activator, full curve]
65 | COc1ccc(S(=O)(=O)N2CCOCC2)cc1NC(=O)c1cc2c(s1)CCCC2 | – | active: 16.4 µM
66 | CCOC(=O)CSc1nc2cc(C(=O)N3CCCC3)ccc2c(=O)n1Cc1ccccc1 | – | inconclusive: 18.4 µM [inhibitor, partial curve]
